Source: article PMC3400551
No constants are given. Whether binding was seen depends on the method and setting. For part of these data: Binding seen in cells or lysates may run through a third protein. Some results given as binding are weak or reduced against the parent protein; the word gives no strength. For part of these data: Where a sequence is shown, tags or fusion partners need not be part of it.

Experiments:
[1] = target: T1, Treponema pallidum RsfA (TP0738) (Treponema pallidum) (UniProt O83720); test: two-hybrid; baits in pGBKT7g and preys in pGADT7g, haploid strains AH109 and Y187 mated; growth of diploids on medium lacking Leu, Trp and His with 0 to 100 mM 3-AT; quadruplicates
T1 sequence: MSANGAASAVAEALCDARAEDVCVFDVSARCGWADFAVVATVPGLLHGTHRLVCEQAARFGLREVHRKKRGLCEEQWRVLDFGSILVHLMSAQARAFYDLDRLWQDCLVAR

[2] = target: T2, MBP-tagged maize chloroplastic L14 (RPL14) (Zea mays) (UniProt P08529); test: pull-down; 25 ug soluble fractions of E. coli BL21(DE3) lysates mixed; NusA-tagged preys co-purified with MBP fusions on amylose beads; 50 mM Tris-HCl pH 8.0, 100 mM NaCl, room temperature 30 min; Western blot
T2 sequence: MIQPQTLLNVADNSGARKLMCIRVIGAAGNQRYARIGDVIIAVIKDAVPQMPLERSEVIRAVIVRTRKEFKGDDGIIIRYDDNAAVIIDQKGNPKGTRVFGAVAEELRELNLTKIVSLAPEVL

[3] = target: T3, Treponema pallidum ribosomal protein L14 (TP0199) (Treponema pallidum) (UniProt O83229); test: two-hybrid; baits in pGBKT7g and preys in pGADT7g, haploid strains AH109 and Y187 mated; growth of diploids on medium lacking Leu, Trp and His with 0 to 100 mM 3-AT; quadruplicates
T3 sequence: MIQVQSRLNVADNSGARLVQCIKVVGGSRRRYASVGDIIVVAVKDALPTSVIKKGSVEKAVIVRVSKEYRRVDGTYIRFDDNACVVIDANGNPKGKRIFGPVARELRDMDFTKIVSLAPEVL

B1: Treponema pallidum ribosomal protein L14 (TP0199) (protein, UniProt O83229 1-122)
chain: T3 sequence
binding [1]: binds

B2: NusA-His6-tagged maize Iojap (maize RsfA) (protein, UniProt Q41822 63-228)
chain: SQSASSSNVNFGRGDDADKLLEDLLKQHGEVVYSSGGPPDPTVEADDDAECLSFAVSLAKAASEIKATDIRVLCVRRLVYWTRFFIILTAFSNAQIDAISSKMRDIGEKQFSKVASGDTKPNSWTLLDFGDVVVHIFLPQQRAFYNLEEFYGNATPIELPFDTQRQ
binding [2]: binds

B3: Treponema pallidum RsfA (TP0738) (protein, UniProt O83720 1-111)
chain: T1 sequence
binding [3]: binds
